Data from article PMC3738525.
No constants are given. Whether binding was seen depends on the method and setting. In cells and extracts the contact can be indirect. These calls come from enrichment with a bait or labelling near it, and not all partners need be listed.

Protein sequences, listed by entry. Tags and fused reporters are not part of them.
UniProt P23528: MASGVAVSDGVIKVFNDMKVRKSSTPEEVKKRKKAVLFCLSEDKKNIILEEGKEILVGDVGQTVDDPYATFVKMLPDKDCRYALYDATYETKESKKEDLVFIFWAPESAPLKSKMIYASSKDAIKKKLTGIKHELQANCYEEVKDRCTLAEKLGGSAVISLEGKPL
UniProt P63104: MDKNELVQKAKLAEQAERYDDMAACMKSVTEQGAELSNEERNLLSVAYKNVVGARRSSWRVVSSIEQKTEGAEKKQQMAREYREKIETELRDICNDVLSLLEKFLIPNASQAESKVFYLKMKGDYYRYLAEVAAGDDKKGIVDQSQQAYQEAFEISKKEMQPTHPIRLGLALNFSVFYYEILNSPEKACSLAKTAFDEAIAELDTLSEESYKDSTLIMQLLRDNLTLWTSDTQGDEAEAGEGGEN

Biological target: endogenous cofilin (human (endogenous in platelets and HUVEC)) (UniProt P23528)
Assay: affinity purification with mass spectrometry; endothelial cells cross-linked with 1% formaldehyde, RIPA lysate, anti-cofilin antibody and protein A magnetic beads; control beads alone; trypsin digest, LC-MS/MS

With 14-3-3ζ (from UniProt P63104 1-245) the binding was “binds”.
